Measurements from paper PMC4976255.
Results are given in words; binding and its absence hold for the method and conditions named. In cells and extracts the contact can be indirect. Some binding calls cover weakened binding; strength is not graded here. Sequences can lack the tags named with a protein. Each block holds one binder with its values, some of them ahead of it.

By UniProt entry, the sequences of proteins in these tests, tags left out.
UniProt Q06413: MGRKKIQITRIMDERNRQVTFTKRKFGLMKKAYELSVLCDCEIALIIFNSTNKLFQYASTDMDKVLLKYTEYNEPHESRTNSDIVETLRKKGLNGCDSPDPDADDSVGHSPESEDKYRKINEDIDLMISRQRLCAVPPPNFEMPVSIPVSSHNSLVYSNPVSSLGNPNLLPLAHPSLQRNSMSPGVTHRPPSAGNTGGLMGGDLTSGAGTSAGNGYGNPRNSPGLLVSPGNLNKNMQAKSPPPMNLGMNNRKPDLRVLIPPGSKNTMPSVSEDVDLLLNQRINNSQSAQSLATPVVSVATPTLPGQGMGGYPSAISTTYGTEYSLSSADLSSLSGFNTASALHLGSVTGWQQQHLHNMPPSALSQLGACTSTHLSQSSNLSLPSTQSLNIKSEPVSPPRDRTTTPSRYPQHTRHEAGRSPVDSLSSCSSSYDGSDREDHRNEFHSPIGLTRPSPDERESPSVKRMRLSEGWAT

Biological target: Flag-tagged MEF2C (UniProt Q06413)
Experiment: co-IP; HEK-293 cells co-transfected with MEF2C-Flag and Myc-MRF4 or Myc-myogenin, plus a plasmid coding for E47; lysates immunoprecipitated with anti-Flag, western blot with anti-Myc; Immunocruz IP/WB Optima System

binding: binds
B1: Myc-tagged myogenin (protein, UniProt P20428 1-287)
chain: MELYETSPYFYQEPHFYDGENYLPVHLQGFEPPGYERTELSLSPEARGPLEEKGLGTPEHCPGQCLPWACKVCKRKSVSVDRRRAATLREKRRLKKVNEAFEALKRSTLLNPNQRLPKVEILRSAIQYIERLQALLSSLNQEERDLRYRGGGGPSRWYPVNATPTAPPAVRSGAMHWSLVPTQEIICSQLTLQVPTTCTPLRPSWTASRWRICLSPSQMKPCPTEIVCQAGCAWEPLSWCQTPPLLQQGPFKWGCPGAQKTALGCHKPDYPPSIHIRLTPSPAREFN

binding: binds
B2: Myc-tagged MRF4 (protein, UniProt P15375 1-242)
chain: MMMDLFETGSYFFYLDGENVTLQPLEVAEGSPLYPGSDGTLSPCQDQMPQEAGSDSSGEEHVLAPPGLQPPHCPGQCLIWACKTCKRKSAPTDRRKAATLRERRRLKKINEAFEALKRRTVANPNQRLPKVEILRSAISYIERLQDLLHRLDQQEKMQELGVDPYSYKPKQEILEGADFLRTCSPQWPSVSDHSRGLVITAKEGGANVDASASSSLQRLSSIVDSISSEERKLPSVEEVVEK
